Reference: PubChem BioAssay AID1508597 (Cure First, 2020)

- Purpose: 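Knock-downs altering ovarian cancer cell survival with or without PARP inhibitor rucaparib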 (primary screen)
- System: human ovarian carcinoma lines grown from tumours: OCI-P5x (papillary serous) and OCI-C5x (clear cell)
- Reagent: siRNA pool against human genes, 1.25 pmol siRNA per well
- Duration: 72 h or 96 h, depending on the cell culture
- Treatment: rucaparib 20 µM (about IC30) or vehicle, present until read-out
- Rucaparib or vehicle: Rucaparib
- Cell line: OCI-P5x (serous)
- Measurement: 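ATP luminescence measured at 72 or 96 h according to the culture, then normalised and expressed as percent viability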
- Reading the numbers: viability, normalised: higher = more viable cells remaining
- Hit rule: 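a well counts as a hit if its normalised viability is under 80 percent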
- Meaning of the calls: active = viability under 80%; inactive = viability 80% or more
This is a random part of the about 2,100 reagents, in one setting of the screen. 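Calls flag viability under 80% in either arm, not effects specific to rucaparib; the reference for percent is not stated.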 The record does not give: the 100% reference.

no.	gene knocked down	technical replicate	viability, normalised (%)	Outcome
1	AANAT (GeneID 15)	1	58.9	active
2	AANAT (GeneID 15)	2	56.9	active
3	AANAT (GeneID 15)	3	56.1	active
4	CLDN1 (GeneID 9076)	1	79.2	active
5	CLDN1 (GeneID 9076)	2	68.7	active
6	CLDN1 (GeneID 9076)	3	77	active
7	ZAR1 (GeneID 326340)	1	96.3	inactive
8	ZAR1 (GeneID 326340)	2	90	inactive
9	ZAR1 (GeneID 326340)	3	82.3	inactive
10	POLR2I (GeneID 5438)	1	78	active
11	POLR2I (GeneID 5438)	2	84.3	inactive
12	POLR2I (GeneID 5438)	3	79.8	active
13	TDG (GeneID 6996)	1	89.5	inactive
14	TDG (GeneID 6996)	2	98.7	inactive
15	TDG (GeneID 6996)	3	81.1	inactive
16	MCCC1 (GeneID 56922)	1	69.4	active
17	MCCC1 (GeneID 56922)	2	77.1	active
18	MCCC1 (GeneID 56922)	3	93.3	inactive

Part of the list above, set out differently:
{"gene knocked down":"MCCC1 (GeneID 56922)","technical replicate":"2","viability, normalised (%)":77.1,"Outcome":"active"}
{"gene knocked down":"MCCC1 (GeneID 56922)","technical replicate":"3","viability, normalised (%)":93.3,"Outcome":"inactive"}

The list goes on:
no.	gene knocked down	technical replicate	viability, normalised (%)	Outcome
19	WDR5 (GeneID 11091)	1	43.9	active
20	WDR5 (GeneID 11091)	2	37.4	active
21	WDR5 (GeneID 11091)	3	48.2	active
22	CLDN20 (GeneID 49861)	1	56.9	active
23	CLDN20 (GeneID 49861)	2	69.8	active
24	CLDN20 (GeneID 49861)	3	81.2	inactive
25	CENPE (GeneID 1062)	1	48.9	active
26	CENPE (GeneID 1062)	2	46	active
27	CENPE (GeneID 1062)	3	51.9	active
28	PKN3 (GeneID 29941)	1	48.3	active
29	PKN3 (GeneID 29941)	2	60.4	active
30	PKN3 (GeneID 29941)	3	62.7	active
31	DHX15 (GeneID 1665)	1	62.7	active
32	DHX15 (GeneID 1665)	2	64.7	active
33	DHX15 (GeneID 1665)	3	65.9	active
34	PKM (GeneID 5315)	1	103	inactive
35	PKM (GeneID 5315)	2	99.8	inactive
36	PKM (GeneID 5315)	3	94.1	inactive
37	SBDS (GeneID 51119)	1	73.4	active
38	SBDS (GeneID 51119)	2	88.7	inactive
39	SBDS (GeneID 51119)	3	56.7	active
